The results in this text go back to patent US20250257064A1, “TRIFLUOROMETHYL-SUBSTITUTED SULFONAMIDE AS BCL-2-SELECTIVE INHIBITOR” (Chia Tai Tianqing Pharmaceutical Group Co., Ltd., priority 2018, published 2025).

The chains behind the UniProt entries cited, without tags or fusion partners.
UniProt P10415, whole entry: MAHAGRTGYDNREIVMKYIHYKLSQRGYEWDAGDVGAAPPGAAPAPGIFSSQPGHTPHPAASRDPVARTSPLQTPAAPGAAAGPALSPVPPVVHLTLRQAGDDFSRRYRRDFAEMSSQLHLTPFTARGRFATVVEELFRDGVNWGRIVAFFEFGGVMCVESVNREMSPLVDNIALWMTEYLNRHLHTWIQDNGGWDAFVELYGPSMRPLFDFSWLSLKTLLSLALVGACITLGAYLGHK
UniProt Q07817, whole entry: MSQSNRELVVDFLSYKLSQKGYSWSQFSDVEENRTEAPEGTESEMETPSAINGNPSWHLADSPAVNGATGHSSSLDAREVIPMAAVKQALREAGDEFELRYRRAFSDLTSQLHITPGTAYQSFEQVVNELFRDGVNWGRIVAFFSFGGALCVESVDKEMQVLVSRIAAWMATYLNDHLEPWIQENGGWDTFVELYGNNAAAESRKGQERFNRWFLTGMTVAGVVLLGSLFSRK

Structures were worked out from names or drawings and are uncertain.

The target of one experiment is BCL-2/BAK (Homo sapiens, UniProt P10415). As to the kind of experiment: Screening on inhibitory activity for BCL-2/BAK binding (Cisbio HTRF kit). The note with it: read-out: BCL-2/BAK IC50.
The target of a further experiment is BCL-XL/BAK (Homo sapiens, UniProt Q07817). Kind of experiment: Screening on inhibitory activity for BCL-XL/BAK binding (Cisbio HTRF kit). The following applies: read-out: BCL-XL/BAK IC50. On the technique in general: TR-FRET usually uses a lanthanide donor and a delayed reading to cut background.
A further experiment concerns RS4;11 cells. Kind of experiment: Inhibitory effect on proliferation of RS4;11 cells (CCK-8). The class given is cell-based, human. The following applies: read-out: RS4;11 cells IC50, 72 h.

With `CC1(C)CCC(CN2CCN(c3ccc(C(=O)NS(=O)(=O)c4ccc(NCC5CN(S(=O)(=O)C6CC6)CCO5)c([N+](=O)[O-])c4)c(Oc4cnc5[nH]ccc5c4)c3)CC2)=C(c2ccc(C(F)(F)F)cc2Cl)C1` (centres unmarked), the IC50 was 3.7 nM on BCL-2/BAK, 266 nM on BCL-XL/BAK and 3 nM in the experiment on RS4;11 cells.
Turning to `CC1(C)CCC(CN2CCN(c3ccc(C(=O)NS(=O)(=O)c4ccc(NCC5CN(S(=O)(=O)C6CCC6)CCO5)c([N+](=O)[O-])c4)c(Oc4cnc5[nH]ccc5c4)c3)CC2)=C(c2ccc(C(F)(F)F)cc2Cl)C1` (centres unmarked), the IC50 at BCL-2/BAK amounted to 4.6 nM; at BCL-XL/BAK, 485 nM; in the experiment on RS4;11 cells, 3 nM.
As for `CC1(C)CCC(CN2CCN(c3ccc(C(=O)NS(=O)(=O)c4ccc(NCC5CN(C(=O)C6CC6)CCO5)c([N+](=O)[O-])c4)c(Oc4cnc5[nH]ccc5c4)c3)CC2)=C(c2ccc(C(F)(F)F)cc2Cl)C1` (centres unmarked), the IC50 on BCL-2/BAK was 2.1 nM; in the experiment on RS4;11 cells, 1.3 nM.
